For the assay, the target named is FLAG-tagged WT-CCDC105 (mouse) (UniProt Q9D4K7). As to the kind of experiment: co-IP; HEK293T cells co-transfected with FLAG-, MYC- and/or HA-tagged plasmids, lysed 48 h later in Pierce IP Lysis Buffer; lysates incubated overnight with FLAG antibody at 4°C, then Protein A/G agarose for 4 h; five washes; Western blot with anti-FLAG, anti-MYC or anti-HA. On the technique in general: Immunoblotting shows a protein as a band on a membrane.

The chains behind the UniProt entries cited, without tags or fusion partners.
UniProt Q9D4K7: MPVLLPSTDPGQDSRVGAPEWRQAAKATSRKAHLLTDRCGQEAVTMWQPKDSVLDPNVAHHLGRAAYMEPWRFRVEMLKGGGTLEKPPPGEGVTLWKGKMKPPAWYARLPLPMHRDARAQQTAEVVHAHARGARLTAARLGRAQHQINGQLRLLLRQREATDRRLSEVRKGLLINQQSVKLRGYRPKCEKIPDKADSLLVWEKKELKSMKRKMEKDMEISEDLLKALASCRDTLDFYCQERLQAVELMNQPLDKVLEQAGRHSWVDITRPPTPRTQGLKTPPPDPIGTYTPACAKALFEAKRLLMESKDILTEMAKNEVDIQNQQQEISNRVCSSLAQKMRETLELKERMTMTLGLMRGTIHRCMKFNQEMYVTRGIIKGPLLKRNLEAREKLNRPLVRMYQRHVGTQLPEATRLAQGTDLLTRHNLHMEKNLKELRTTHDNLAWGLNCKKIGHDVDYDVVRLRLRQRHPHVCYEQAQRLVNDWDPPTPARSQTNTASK

These are yes or no findings as the source states them, for the method shown. In cells and extracts the contact can be indirect. Some results given as binding are weak or reduced against the parent protein; the word gives no strength. Where a sequence is shown, tags or fusion partners need not be part of it.

B1: HA-tagged TEX43 (protein, UniProt Q9D9I1 1-141)
chain: MASEKDDGPALPKLDDDNQTAENTCKPAEEQPQQLRWDDIHLPRFSLKQGMIPTRYVMPWKENMKFRNVNLQQAEACGIYAGPLEDSLFWGYSERLCHGEDRKAVLKKGLPEIKITDMPLHSPLSRYQSTVISHGFRRRLI
Take B1: the binding result is “binds”.

The values above are taken from article PMC12551952.
